Results from paper PMC11750977.
No constants are given. Whether binding was seen depends on the method and setting. In cells and extracts the contact can be indirect. Some entries that bind do so weakly or less than the wild type. For some assays here: Tags and fused reporters may be left off the sequences shown.

Sequences of proteins named here, by UniProt entry; tags and fusion partners are left off. Residues count along the entry.
UniProt P35968, residues 20-1356: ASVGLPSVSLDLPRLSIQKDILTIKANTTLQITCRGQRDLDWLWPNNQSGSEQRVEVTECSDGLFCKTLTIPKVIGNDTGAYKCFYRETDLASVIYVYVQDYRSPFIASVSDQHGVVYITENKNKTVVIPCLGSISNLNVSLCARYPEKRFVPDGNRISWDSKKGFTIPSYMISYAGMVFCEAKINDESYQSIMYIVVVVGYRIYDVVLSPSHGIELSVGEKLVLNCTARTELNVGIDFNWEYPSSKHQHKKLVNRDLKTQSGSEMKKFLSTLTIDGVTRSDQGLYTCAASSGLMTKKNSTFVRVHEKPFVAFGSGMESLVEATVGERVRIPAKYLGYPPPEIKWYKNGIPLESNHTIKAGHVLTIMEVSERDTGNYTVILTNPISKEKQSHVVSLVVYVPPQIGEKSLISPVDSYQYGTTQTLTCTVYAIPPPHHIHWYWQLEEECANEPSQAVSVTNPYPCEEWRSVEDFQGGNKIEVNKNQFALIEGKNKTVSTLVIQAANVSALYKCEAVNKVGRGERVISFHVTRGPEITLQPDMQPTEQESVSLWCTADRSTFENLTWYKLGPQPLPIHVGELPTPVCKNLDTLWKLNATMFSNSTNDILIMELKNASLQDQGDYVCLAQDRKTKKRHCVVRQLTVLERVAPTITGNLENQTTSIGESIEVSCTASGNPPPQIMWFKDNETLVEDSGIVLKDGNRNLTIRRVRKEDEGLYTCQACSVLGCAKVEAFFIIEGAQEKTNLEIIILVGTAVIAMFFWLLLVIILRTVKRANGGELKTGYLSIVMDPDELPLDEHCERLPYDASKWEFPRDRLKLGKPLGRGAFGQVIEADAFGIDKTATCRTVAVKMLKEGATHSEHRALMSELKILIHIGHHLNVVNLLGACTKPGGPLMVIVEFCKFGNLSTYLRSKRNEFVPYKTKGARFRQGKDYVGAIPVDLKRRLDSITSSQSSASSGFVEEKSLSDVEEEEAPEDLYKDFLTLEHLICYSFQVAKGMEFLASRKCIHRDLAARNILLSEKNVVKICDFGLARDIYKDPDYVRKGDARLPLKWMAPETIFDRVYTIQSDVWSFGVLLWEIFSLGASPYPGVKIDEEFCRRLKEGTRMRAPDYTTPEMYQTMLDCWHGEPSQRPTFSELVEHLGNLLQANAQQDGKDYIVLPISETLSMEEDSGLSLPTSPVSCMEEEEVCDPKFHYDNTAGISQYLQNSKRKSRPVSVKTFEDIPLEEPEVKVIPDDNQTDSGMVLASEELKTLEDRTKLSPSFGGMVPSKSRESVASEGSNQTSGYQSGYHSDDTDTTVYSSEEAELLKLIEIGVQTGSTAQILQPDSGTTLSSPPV

B1: β-catenin in HUVECs, P35222 1-781 (protein)
chain: MATQADLMELDMAMEPDRKAAVSHWQQQSYLDSGIHSGATTTAPSLSGKGNPEEEDVDTSQVLYEWEQGFSQSFTQEQVADIDGQYAMTRAQRVRAAMFPETLDEGMQIPSTQFDAAHPTNVQRLAEPSQMLKHAVVNLINYQDDAELATRAIPELTKLLNDEDQVVVNKAAVMVHQLSKKEASRHAIMRSPQMVSAIVRTMQNTNDVETARCTAGTLHNLSHHREGLLAIFKSGGIPALVKMLGSPVDSVLFYAITTLHNLLLHQEGAKMAVRLAGGLQKMVALLNKTNVKFLAITTDCLQILAYGNQESKLIILASGGPQALVNIMRTYTYEKLLWTTSRVLKVLSVCSSNKPAIVEAGGMQALGLHLTDPSQRLVQNCLWTLRNLSDAATKQEGMEGLLGTLVQLLGSDDINVVTCAAGILSNLTCNNYKNKMMVCQVGGIEALVRTVLRAGDREDITEPAICALRHLTSRHQEAEMAQNAVRLHYGLPVVVKLLHPPSHWPLIKATVGLIRNLALCPANHAPLREQGAIPRLVQLLVRAHQDTQRRTSMGGTQQQFVEGVRMEEIVEGCTGALHILARDVHNRIVIRGLNTIPLFVQLLYSPIENIQRVAAGVLCELAQDKEAAEAIEAEGATAPLTELLHSRNEGVATYAAAVLFRMSEDKPQDYKKRLSVELTSSLFRTEPMAWNETADLGLDIGAQGEPLGYRQDDPSYRSFHSGGYGQDALGMDPMMEHEMGGHHPGADYPVDGLPDLGHAQDLMDGLPPGDSNQLAWFDTDL

What was measured:
[1] = target: T1, Myc-tagged MARCH5 in HEK293T cells (UniProt Q9NX47); test: co-IP; lysates of HEK293T cells transfected with Myc-MARCH5 and HA-VEGFR2 plasmids with or without PCDH17-Flag adenovirus; anti-Myc, anti-FLAG or anti-HA with protein A/G magnetic beads, 4 °C overnight; western blotting
T1 sequence: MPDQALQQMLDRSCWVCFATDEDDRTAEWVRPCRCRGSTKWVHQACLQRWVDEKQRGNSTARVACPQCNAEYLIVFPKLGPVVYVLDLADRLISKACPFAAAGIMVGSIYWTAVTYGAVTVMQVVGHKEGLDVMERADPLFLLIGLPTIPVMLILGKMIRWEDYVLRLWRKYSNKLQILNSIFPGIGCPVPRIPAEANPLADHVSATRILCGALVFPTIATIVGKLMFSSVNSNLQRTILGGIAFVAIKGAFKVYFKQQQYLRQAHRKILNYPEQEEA

[2] = target: T2, VE-cadherin in HUVECs (human (endogenous in HUVECs)), P33151; test: co-IP; lysates of HUVECs with or without PCDH17 overexpression; anti-VE-cadherin with protein A/G magnetic beads, 4 °C overnight; western blotting; conditions: remark: other sources report otherwise
T2 chain: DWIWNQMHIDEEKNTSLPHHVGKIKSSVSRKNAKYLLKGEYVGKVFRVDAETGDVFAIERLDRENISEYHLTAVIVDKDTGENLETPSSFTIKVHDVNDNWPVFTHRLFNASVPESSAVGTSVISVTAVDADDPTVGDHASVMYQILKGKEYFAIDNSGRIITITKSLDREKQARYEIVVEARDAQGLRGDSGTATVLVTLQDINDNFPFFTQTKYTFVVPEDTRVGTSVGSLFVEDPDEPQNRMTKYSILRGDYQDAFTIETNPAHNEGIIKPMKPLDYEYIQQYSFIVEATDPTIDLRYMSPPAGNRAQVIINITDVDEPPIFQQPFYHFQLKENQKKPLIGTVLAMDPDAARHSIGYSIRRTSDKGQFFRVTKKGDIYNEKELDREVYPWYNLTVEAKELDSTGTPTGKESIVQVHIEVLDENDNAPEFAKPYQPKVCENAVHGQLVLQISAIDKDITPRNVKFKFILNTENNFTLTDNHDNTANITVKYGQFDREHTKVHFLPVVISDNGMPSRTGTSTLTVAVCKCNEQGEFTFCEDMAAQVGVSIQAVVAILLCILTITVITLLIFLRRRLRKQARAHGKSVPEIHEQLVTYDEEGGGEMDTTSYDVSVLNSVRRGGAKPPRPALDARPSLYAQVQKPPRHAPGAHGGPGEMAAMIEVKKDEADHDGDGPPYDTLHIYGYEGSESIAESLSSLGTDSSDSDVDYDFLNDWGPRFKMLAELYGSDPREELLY

Row | Molecule | binding [1] | binding [2]
1 | HA-VEGFR2 in HEK293T cells (from UniProt P35968 20-1356) (receptor) | binds | –
2 | B1 | – | binds
